Reference: article PMC6710348
No constants are given. Whether binding was seen depends on the method and setting. In cells and extracts the contact can be indirect. Some entries that bind do so weakly or less than the wild type.

By UniProt entry, the sequences of proteins in these tests, tags left out. Residues count along the entry.
UniProt P30561, residues 10-848: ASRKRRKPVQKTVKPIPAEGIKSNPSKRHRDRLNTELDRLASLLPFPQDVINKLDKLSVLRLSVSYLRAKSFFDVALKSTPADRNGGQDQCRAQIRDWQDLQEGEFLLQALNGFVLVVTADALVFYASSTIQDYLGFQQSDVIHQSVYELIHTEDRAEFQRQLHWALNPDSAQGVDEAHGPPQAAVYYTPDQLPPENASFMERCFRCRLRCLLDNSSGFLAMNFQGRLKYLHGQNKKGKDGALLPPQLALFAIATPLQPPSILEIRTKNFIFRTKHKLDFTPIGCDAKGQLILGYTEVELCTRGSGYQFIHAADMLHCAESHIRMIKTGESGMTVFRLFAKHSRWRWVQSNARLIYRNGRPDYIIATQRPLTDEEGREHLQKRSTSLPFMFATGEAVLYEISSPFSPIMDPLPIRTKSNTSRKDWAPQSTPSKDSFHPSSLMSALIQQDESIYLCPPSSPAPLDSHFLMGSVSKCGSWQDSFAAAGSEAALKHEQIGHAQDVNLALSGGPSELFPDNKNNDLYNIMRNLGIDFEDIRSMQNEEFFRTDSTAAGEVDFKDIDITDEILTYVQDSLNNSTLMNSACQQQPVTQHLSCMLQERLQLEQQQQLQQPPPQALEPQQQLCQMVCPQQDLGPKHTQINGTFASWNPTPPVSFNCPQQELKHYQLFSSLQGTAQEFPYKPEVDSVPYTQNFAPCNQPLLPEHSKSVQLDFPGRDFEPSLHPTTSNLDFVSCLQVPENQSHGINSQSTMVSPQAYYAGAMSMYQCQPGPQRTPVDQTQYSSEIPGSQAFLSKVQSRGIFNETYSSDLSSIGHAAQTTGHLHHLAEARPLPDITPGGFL

Target: T1, Nuclear coactivator 7 (NCOA7), mouse (mouse) (UniProt Q6DFV7)
T1 sequence: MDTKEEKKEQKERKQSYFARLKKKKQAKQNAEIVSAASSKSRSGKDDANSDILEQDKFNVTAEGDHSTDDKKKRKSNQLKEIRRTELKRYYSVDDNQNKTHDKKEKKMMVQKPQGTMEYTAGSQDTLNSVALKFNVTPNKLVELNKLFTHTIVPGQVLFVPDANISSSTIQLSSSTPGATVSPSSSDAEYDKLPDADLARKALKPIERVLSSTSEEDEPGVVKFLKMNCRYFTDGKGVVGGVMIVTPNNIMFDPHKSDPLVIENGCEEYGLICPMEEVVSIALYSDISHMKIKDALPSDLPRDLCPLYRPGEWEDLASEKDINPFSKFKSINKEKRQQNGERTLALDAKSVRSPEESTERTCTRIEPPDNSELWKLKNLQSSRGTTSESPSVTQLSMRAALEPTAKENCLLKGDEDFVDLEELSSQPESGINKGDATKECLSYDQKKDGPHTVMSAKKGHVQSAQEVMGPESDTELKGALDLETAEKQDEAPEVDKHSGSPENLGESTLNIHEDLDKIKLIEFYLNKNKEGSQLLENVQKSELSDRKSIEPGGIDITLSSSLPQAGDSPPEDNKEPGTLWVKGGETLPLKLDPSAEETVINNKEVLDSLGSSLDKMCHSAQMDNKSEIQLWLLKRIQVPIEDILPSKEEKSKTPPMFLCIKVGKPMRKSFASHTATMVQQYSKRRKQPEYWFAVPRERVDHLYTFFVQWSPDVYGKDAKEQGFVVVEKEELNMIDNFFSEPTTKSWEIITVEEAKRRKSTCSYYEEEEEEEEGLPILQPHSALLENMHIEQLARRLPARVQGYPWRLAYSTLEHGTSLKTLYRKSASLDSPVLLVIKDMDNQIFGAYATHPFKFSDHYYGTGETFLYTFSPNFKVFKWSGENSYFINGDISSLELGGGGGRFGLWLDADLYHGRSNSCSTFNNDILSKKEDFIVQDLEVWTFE
Assay: co-IP; mouse AhR and NCOA7 coexpressed in human HEK293 cells; cells incubated 4 h with medium, 50 uM Kyn, 50 uM 3-HAA or both before lysis; immunoprecipitation with anti-NCOA7 antibody, Western blot with anti-AhR antibodies (text says reciprocal immunoprecipitation)

- binding: binds
Substance: Aryl hydrocarbon Receptor (AhR), mouse (from UniProt P30561 10-848)
